# Part of at least one peptide drawing is inferred or uncertain, most often the ends. Peptide text beside a SMILES is read from it.
# Columns and labels:
# [1] = tested on: mouse (strain B6 D2 F1) peritoneal macrophages; assay: Stimulation of phagocytosis in vitro; format: cell-based; settings: 25 micromolar per dish; opsonized sheep red cells; 1 hour of contact; macrophages which had ingested more than 2 red cells counted
# [2] = tested on: "natural killer" activity; assay: Promotion of NK activity (chromium release from YAC-1 tumor cells by spleen cells of treated mice); format: in vivo, B6 D2 F1 strain mice; settings: dose of 40 μg/kg intravenously, spleen cells three days after treatment
# mouse B 16 melanoma = assay: Inhibition of growth of B 16 melanoma; format: in vivo; settings: intraperitoneally 20 μg/kg 3 times per week
# [3] = tested on: Klebsiella pneumoniae strain 7823; assay: Increase in the resistance of animals to infection; format: in vivo, female Swiss mice; settings: 60 μg per animal, administered 48 hours before infection; Klebsiella pneumoniae strain 7823 inoculated IP
smiles,measurement,setting,value
"C[C@@H](O)[C@H](N)C(=O)N[C@@H](CCCCN)C(=O)N1CCC[C@H]1C(=O)N[C@@H](CCCNC(=N)N)C(=O)O [tuftsin, Thr-Lys-Pro-Arg] (H-TKPR-OH)","increase in the phagocytic power of macrophages, relative to control cultures",[1],15%
same,release of chromium,[2],10%
same,reduction of the rate of growth of mouse B 16 melanoma,mouse B 16 melanoma,incapable of promoting a reduction in the growth of the grafted tumor
same,protection against death by infection (animals saved),[3],20%

# Reference: patent US5047400A, “Tripeptide compounds having a nitrogenous polycyclic structure” (priority 1987, dated 1991)
